Assay results published in PubChem BioAssay AID651640 (Broad Institute, 2012).
Several values for one entry are separate records, joined by “and”; a condition that tells them apart may be missing. Identical values can stand only once. Screen size: about 350,000 compounds; about 6,000 (1.7%) were called active. The inconclusive results got no clear call from the source; some entries with a clear call stand among them for comparison. Rule as the data show it: active = CPE inhibition above about 20% (passing the limit was not always enough); inconclusive = no clear call, values can overlap the other calls; tested in BHK-21 cells.

Test: protection of cells from dengue 2 killing – plate reader, single concentration, primary screen (AID 651640);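 also: 0% = median of neutral control wells and 100% = median of positive control wells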
Settings: DENV2-infected cells, cytopathic effect rescue, at 9.99 µM, stronger effect = higher value
With `O=C(C1CC1)N1CC(=O)N2[C@H](CO)[C@H](c3ccc(Br)cc3)[C@H]2C1` the CPE inhibition was inconclusive: 30.2%. For `O=C(NC1CCCCC1)N[C@@H]1CC[C@@H](CCNS(=O)(=O)c2ccc(Cl)cc2)O[C@H]1CO`, the CPE inhibition was inactive: -2.7%. For `C[C@H]1CN([C@@H](C)CO)C(=O)c2cccc(NC(=O)Nc3ccc4c(c3)OCO4)c2O[C@H]1CN(C)Cc1ccc(Oc2ccccc2)cc1`, the CPE inhibition was inconclusive: 28.3%. In the case of `C[C@@H]1CN([C@@H](C)CO)C(=O)c2cccc(NC(=O)c3nc4ccccc4s3)c2O[C@H]1CN(C)C(=O)Nc1ccc2c(c1)OCO2`, the CPE inhibition is reported as inconclusive: 38.1%. With `CCN(CC)CCCn1c2c(c(SCC(=O)Nc3cc(C)cc(C)c3)nc1=O)CCC2` the CPE inhibition was active: 22.5%. In the case of `COc1cc(-c2cc(C(=O)OCC(=O)NC3CC3)c3ccccc3n2)cc(OC)c1OC`, the CPE inhibition is reported as inconclusive: 25.8%. In the case of `O=C(C[C@H]1CC[C@H]2[C@@H](COC[C@H](O)CN2C(=O)Nc2cccc(F)c2)O1)NCc1ccccc1Cl`, the CPE inhibition is reported as inconclusive: 30.5%. For `C[C@H](CO)N1C[C@H](C)[C@H](CN(C)C)Oc2ncc(-c3ccc(C(=O)N(C)C)cc3)cc2C1=O`, the CPE inhibition was inconclusive: 29.7%. For `CCOC(=O)C1=C(C)NC(=O)NC1c1ccc(N(C)C)cc1` (configuration not stated), the CPE inhibition was active: 69.8%. In the case of `CC(NS(=O)(=O)c1cc2c3c(c1)CCN3C(=O)CC2)c1ccccc1` (configuration not stated), the CPE inhibition is reported as inconclusive: 31.6%. In the case of `O=C(CN1C(=O)c2ccccc2S1(=O)=O)NCc1c(F)cccc1F`, the CPE inhibition is reported as inconclusive: 28.1%. With `COc1ccc(CN(C)C[C@@H]2Oc3ccc(NC(=O)CCN4CCOCC4)cc3CC(=O)N([C@H](C)CO)C[C@H]2C)cc1` the CPE inhibition was inconclusive: 27.2%. With `C[C@H]1CN([C@@H](C)CO)S(=O)(=O)c2ccc(C#CCC3CCCC3)cc2O[C@@H]1CN(C)C(=O)c1cnccn1` the CPE inhibition was inconclusive: 58.5%. For `CCCCn1c(N)c(N(CC(C)C)C(=O)c2ccc(OCC3CCCO3)cc2)c(=O)[nH]c1=O` (configuration not stated), the CPE inhibition was inconclusive: 32.6%. In the case of `COc1ccc(OC)c2sc(NC(=O)c3ccc(S(=O)(=O)N(C)C)cc3)nc12`, the CPE inhibition is reported as inconclusive: 29.8%. With `CCCCNC(=O)c1nc(C2CCN(S(=O)(=O)c3cccc(C(F)(F)F)c3)CC2)oc1-c1ccccc1` the CPE inhibition was inconclusive: 47.5%. In the case of `Cc1c(CC(=O)O)c(=O)oc2cc3occ(-c4ccccc4)c3cc12`, the CPE inhibition is reported as inactive: -1.89%. In the case of `Cc1noc(C)c1NC(=O)N(C)C[C@H]1Oc2ccc(NC(=O)Cc3ccccc3)cc2C(=O)N([C@H](C)CO)C[C@@H]1C`, the CPE inhibition is reported as inconclusive: 39.3%. For `O=C(Nc1cccc(S(=O)(=O)NCc2ccco2)c1)c1cccc(Cl)c1`, the CPE inhibition was inconclusive: 38.9%. For `O=C(C[C@@H]1CC[C@@H](NS(=O)(=O)c2ccccc2)[C@H](CO)O1)NCc1ccncn1`, the CPE inhibition was inactive: 5.45%. With `CC(C)NC(=O)N(C)C[C@H]1OCCCC[C@H](C)Oc2ccc(NC(=O)Nc3ccc(F)cc3)cc2C(=O)N([C@@H](C)CO)C[C@H]1C` the CPE inhibition was active: 56%. With `C[C@H](CO)N1C[C@H](C)[C@@H](CN(C)Cc2ccc(C(F)(F)F)cc2)OCCCC[C@H](C)Oc2ccc(NC(=O)CCCN(C)C)cc2C1=O` the CPE inhibition was inconclusive: 20.8%. In the case of `CC(C)NC(=O)Nc1ccc2c(c1)CC(=O)N([C@@H](C)CO)C[C@H](C)[C@H](CN(C)Cc1ccccc1)O2`, the CPE inhibition is reported as inconclusive: 23.5%. For `Cc1cc(C)c2c(CN3CCC(C)CC3)cc(=O)oc2c1`, the CPE inhibition was inactive: -0.653%. With `Cc1[nH]c(=O)c(C#N)c(C)c1CCC(=O)NCc1cccc(C(F)(F)F)c1` the CPE inhibition was active: 27.7%. For `O=C(C1CC1)N1C[C@H]2[C@@H](c3ccccc31)[C@H](CO)N2C(=O)c1ccccc1`, the CPE inhibition was inactive: -0.71%. With `Cc1cc(C)cc(NS(=O)(=O)c2csc(C(N)=O)c2)c1` the CPE inhibition was inactive: 5.74%. With `Cc1cc(Nc2ccc(F)cc2F)n2ncnc2n1` the CPE inhibition was inconclusive: 43.7%. With `CN1c2ccc(-c3ccccc3)cc2[C@H]2[C@H](CCN2C(=O)Cc2ccccn2)[C@@H]1CO` the CPE inhibition was inactive: 8.52%. For `COCCCNc1ccn2nc(-c3ccc(Cl)cc3)cc2n1`, the CPE inhibition was active: 30.2%. For `O=[N+]([O-])c1cccc(NC(=S)Nc2nc(-c3ccc(Cl)cc3Cl)cs2)c1`, the CPE inhibition was inconclusive: 52%. In the case of `CC(C)NC(=O)N[C@H]1CC[C@H](CC(=O)NCc2ccc(Oc3ccccc3)cc2)O[C@H]1CO`, the CPE inhibition is reported as inconclusive: 25.4%. For `COc1ccc(OC)c(C(=O)NC(CC(N)=O)c2ccc(NCC3CC3)c([N+](=O)[O-])c2)c1` (configuration not stated), the CPE inhibition was inconclusive: 67.1%. In the case of `CCNC(=O)C[C@H]1CC[C@@H]2[C@@H](COc3ccc(NC(=O)Nc4ccccc4F)cc3C(=O)N2C)O1`, the CPE inhibition is reported as inactive: -7.23%. In the case of `CCCCC1=CC2=CC(=O)C(C)(OC(=O)CC)C(=O)C2=CN1CCc1ccccn1` (configuration not stated), the CPE inhibition is reported as inconclusive: 49.8%. With `CC(C)c1nc(Cl)c(C#N)c2c1COC(C)(C)C2` the CPE inhibition was inconclusive: 48.3%. For `C[C@H](CO)N1C[C@H](C)[C@@H](CN(C)S(=O)(=O)c2cccs2)Oc2ccc(NC(=O)CCCN(C)C)cc2C1=O`, the CPE inhibition was inconclusive: 50.8%. For `CCC1CCc2sc(C(=O)NNC(=O)c3ccncc3)cc2C1` (configuration not stated), the CPE inhibition was inconclusive: 20.5%. In the case of `C[C@@H]1CN([C@H](C)CO)S(=O)(=O)c2ccc(-c3ccccc3F)cc2O[C@@H]1CN(C)Cc1cncnc1`, the CPE inhibition is reported as inactive: -8.03%. For `COc1ccc(C(=O)Nc2nc3ccc(OC)cc3s2)cc1`, the CPE inhibition was inconclusive: 27.6%. For `C[C@@H]1CN([C@H](C)CO)C(=O)Cc2cc(NS(=O)(=O)c3ccc(F)cc3)ccc2O[C@H]1CN(C)C`, the CPE inhibition was inconclusive: 28.2%. For `CC(=O)N1CCCCN2[C@H](CO)[C@@H](c3ccc(-c4ccncc4)cc3)[C@@H]2C1`, the CPE inhibition was inconclusive: 22.7%. With `COc1ccccc1-c1ccc2c(c1)[C@H]1[C@H](CCN1S(=O)(=O)c1cn(C)cn1)[C@H](CO)N2` the CPE inhibition was inconclusive: 66.3%. With `COCC(=O)N(C)C[C@H]1Oc2ncc(C#Cc3ccccc3)cc2C(=O)N([C@H](C)CO)C[C@H]1C` the CPE inhibition was inconclusive: 68.2%. For `Cc1noc(C)c1NC(=O)N(C)C[C@@H]1Oc2c(NS(=O)(=O)c3ccccc3)cccc2C(=O)N([C@@H](C)CO)C[C@@H]1C`, the CPE inhibition was active: 125%. With `CC[C@H](C)[C@H](NC(N)=O)C(=O)NCCc1ccc(Cl)cc1` the CPE inhibition was inactive: 1.44%. In the case of `COc1ccc(-c2ccc3n(c2=O)C[C@H]2[C@H](CO)[C@@H](C(=O)N(C)C)[C@@H]3N2Cc2cccnc2)cc1`, the CPE inhibition is reported as inconclusive: 28.5%. For `CN(C)C(=O)c1cccc(-c2ccc(C3[C@H]4CNC[C@@H]3N4C(=O)Nc3ccccc3F)cc2)c1` (some centres not stated), the CPE inhibition was inconclusive: 36.6% and active: 23.3%. In the case of `Cn1nc(-c2ccc(Cl)cc2)c2cc(C(=O)N3CCN(c4ccccc4)CC3)sc21`, the CPE inhibition is reported as inactive: -2.83%. With `CCCN(C)C[C@@H]1Oc2cc(-c3ccc(OC)cc3)ccc2S(=O)(=O)N([C@@H](C)CO)C[C@@H]1C` the CPE inhibition was inconclusive: 32.6%. With `COc1ccccc1-c1ccc([C@H]2[C@@H](CO)N(C(=O)NC(C)C)[C@H]2C#N)cc1` the CPE inhibition was inconclusive: 38%. With `CC(C)(C)OC(=O)N1CCCC(C(=O)Nc2ccc(C(=O)N3CCOCC3)cc2)C1` (configuration not stated) the CPE inhibition was inconclusive: 76.6%. For `Cc1ccc2c(c1)c1c(n2CC(O)CNC2CCCC2)CCCC1` (configuration not stated), the CPE inhibition was active: 27.4%. For `Nc1nc(-c2ccccc2)ns1`, the CPE inhibition was inconclusive: 54.1%. With `COC(=O)c1ccc(CNC(=O)/C=C/[C@H]2O[C@@H](n3cc(C)c(=O)[nH]c3=O)C[C@@H]2O)cc1` the CPE inhibition was inactive: -5.12%. For `Cc1ccc(S(=O)(=O)N[C@@H]2CC[C@H](CC(=O)NCc3ccc(Cl)c(Cl)c3)O[C@H]2CO)cc1`, the CPE inhibition was active: 21.7%. In the case of `O=c1oc2ccccc2c(NC2CCCCC2)c1NS(=O)(=O)c1ccc(Cl)cc1`, the CPE inhibition is reported as inconclusive: 38.2%. In the case of `COc1cc2oc(=O)cc(-c3cccc(-c4cccc(C)c4)c3)c2c(OC)c1OC`, the CPE inhibition is reported as inactive: -17.4%. For `CCn1c(SCC(=O)Nc2cccc(NC(C)=O)c2)nnc1-c1ccco1`, the CPE inhibition was inconclusive: 34.8%. For `Cc1ccc(C)c(S(=O)(=O)Nc2ccc3[nH]c(=O)[nH]c3c2)c1`, the CPE inhibition was inactive: -2.16%. With `C[C@H]1CN([C@@H](C)CO)C(=O)c2cc(NC(=O)Nc3ccc(C(F)(F)F)cc3)ccc2O[C@H]1CN(C)Cc1ccc2c(c1)OCO2` the CPE inhibition was inactive: -1.98%. For `CCCNC(=O)N1C[C@@H](C)[C@H](OC)CN(C)C(=O)c2ccc(NC(=O)C3CCC3)cc2OC[C@H]1C`, the CPE inhibition was active: 39.7%. In the case of `COc1ccc2c3c([nH]c2c1)[C@@H](CO)N(C(=O)Nc1ccc(F)cc1)CC31CCN(S(=O)(=O)c2ccccc2)CC1`, the CPE inhibition is reported as active: 70.5%. For `CN1/C(=C\C(=O)Nc2cccnc2)c2ccccc2CC1(C)C`, the CPE inhibition was inconclusive: 58.6%. With `CC(=O)c1cc2cccc(OC3(C)CCN(Cc4ccc(-c5ccccn5)cc4)C3)c2o1` (configuration not stated) the CPE inhibition was inconclusive: 28.2%. For `COc1ccccc1CNC(=O)[C@@H](NC(=O)C1CCN(C(=O)[C@@H]2CCCN2C(=O)OC(C)(C)C)CC1)C(C)C`, the CPE inhibition was active: 60.8%. In the case of `O=C(NCCOc1ccc(Cl)cc1)C1CCCCC1`, the CPE inhibition is reported as inactive: -3.28%. For `CC(=O)c1ccc2c3c(cc(C)c2c1)CCCC3`, the CPE inhibition was active: 24.8%. For `C=CCOC(=O)C1=C(C)NC(SCC(N)=O)=C(C#N)C1c1ccc(C)cc1` (configuration not stated), the CPE inhibition was inconclusive: 39.5%. In the case of `C[C@H]1CN([C@@H](C)CO)S(=O)(=O)c2ccc(C#Cc3ccc(F)cc3)cc2O[C@@H]1CN(C)C(=O)NC1CCCC1`, the CPE inhibition is reported as inactive: -25.1%. For `COCCNc1nc(NCc2ccc(C)cc2C)c2sccc2n1`, the CPE inhibition was inconclusive: 24.3%. For `C[C@@H]1CN([C@@H](C)CO)C(=O)c2cc(NC(=O)c3ccccc3)ccc2O[C@@H](C)CCCCO[C@H]1CN(C)CC1CCCCC1`, the CPE inhibition was inactive: -12.6%.
